According to the supplement of paper PMC5949888:
Most values lie at the floor of the assay. Slopes are relative: functional sequences can read slightly below zero.

These substances were tested on Saccharomyces cerevisiae PS128 hsf1 delta, HSF1(1-493) fusion (assay: growth estimate (transactivation domain function in HSF1 fusion, heat-shock survival) (a.u. (slope of normalised read count over time)); higher = stronger growth at 37°C, i.e. more transactivation activity). Settings: library: random library.

Substance | growth estimate
TGQR | < -0.25
YLYRLIALK | < -0.25
NRMRRFLSAIQYLVDGVEHT | < -0.25
ISCKLGCRFSL | < -0.25
TLDPVVFGPGKGQRVSLPKA | < -0.25
HLKSVPGVTDVSI | < -0.25
YKPVCANTL | < -0.25
IQHGPSLLMEALLESRESRN | < -0.25
TLAYRPSRPLESTDHA | < -0.25
SLIRSGLYRTSGAAINGIRS | < -0.25
EGKGLNSIKLQLLGLYGCYQ | < -0.25
SGLIRMNRLRNKLLLVSSTG | < -0.25
QNHGSI | -0.246
TMDADMEKHSGISDDFWAQN | < -0.25
STLWSLVPFRG | < -0.25
TGSSKLIIPRGMEGAPTTGS | < -0.25
RISEALHRGGSHIADGASWA | < -0.25
TVLHDLSISSLAASSR | < -0.25
TRDFVPSECYVVNRSLLSFM | < -0.25
TKPTYKSPPSGTHRWRVLPP | < -0.25
PACDNGSTSSPPLQPVCVSS | < -0.25
HGVTDLHDSGSTMGELLVPD | < -0.25
IYGTLTLPSYCGRRNRAWWL | < -0.25
TTFRRSSLFLLSDC | < -0.25

Single entries from the entries so far.
Entry of STLWSLVPFRG under growth estimate: < -0.25
Entry of TGSSKLIIPRGMEGAPTTGS under growth estimate: < -0.25

Additional results.

Substance | growth estimate
YVIDGAIVKGLRRTER | < -0.25
AEQVQGTPRNKGPGIV | < -0.25
IEAPRWSIIGYEFRPLLRLD | < -0.25
NLTKSLQSTH | < -0.25
GLPGRQEQRSGLLVFGSIAA | < -0.25
RRKVGKDTSQQDADQRPMLA | < -0.25
GGSRRACLA | < -0.25
CRAAASSRWKAGGGL | < -0.25
AIKPLSSTSPFWLRRGHQPA | < -0.25
PAPLFHG | < -0.25
QFSGSRLV | < -0.25
GLDER | < -0.25
GWRSGLSSTRLRR | < -0.25
QKIIARPLRLYLY | < -0.25
VDGSLV | < -0.25
LMYSEIWRNS | < -0.25
DSTVRVKQSQEYVTD | < -0.25
VRGEAVCV | -0.245
TRDVIYS | < -0.25
AGTQPRMPSPAEMDCIWPGF | < -0.25
FREKYDPLRAYGKPMVLLCN | < -0.25
PTECSWTALRHNYPCQKLFR | < -0.25
NWNYIERGAKS | < -0.25
PRGLCGLHFDGQH | -0.183

Substance | growth estimate
GQLK | < -0.25
TTSPHPKVHE | < -0.25
DGTE | < -0.25
YRPYAARSIYAGMGTVMGCT | < -0.25
RLPAACKSSSTISGVHSI | < -0.25
VACISMLGAGRRLSPDRLWT | < -0.25
FSGSGRYLHYAISEAGRGPP | < -0.25
ISYPELIYP | < -0.25
LRSAANLMVPVIVYTQSWSK | < -0.25
GFSEPSRSTQGADWFQPTAI | < -0.25
LVLGITSPCRVAVACCKRSV | < -0.25
GVAKLCRFNCTRNVARSGPK | < -0.25
RRCIILHNALGDVQLQLFTL | -0.231
APERMWVSRSCRRSAFGLRL | -0.248
VPQLGLCLHGSASRACKYRC | < -0.25
YVVVSCLVQHAVRFGGVLCA | < -0.25
ANGVPVGRLSIKFLPIRVCA | < -0.25
VLERAVYRR | < -0.25
AIRLIRANTKLLV | < -0.25
EQIFS | < -0.25
YCDPNVREVD | < -0.25
VLGSLQAICWWPGALRTGRR | < -0.25
QAVGIDLGIYCSTGAVAVIH | < -0.25
TIPSGSGGLCLMHGLVDNRQ | < -0.25

Some of the entries so far, with tabs:
Substance	growth estimate
AEQVQGTPRNKGPGIV	< -0.25
IEAPRWSIIGYEFRPLLRLD	< -0.25
NLTKSLQSTH	< -0.25
GLPGRQEQRSGLLVFGSIAA	< -0.25
RRKVGKDTSQQDADQRPMLA	< -0.25
GGSRRACLA	< -0.25
CRAAASSRWKAGGGL	< -0.25
AIKPLSSTSPFWLRRGHQPA	< -0.25
PAPLFHG	< -0.25
QFSGSRLV	< -0.25
GLDER	< -0.25
GWRSGLSSTRLRR	< -0.25
QKIIARPLRLYLY	< -0.25
VDGSLV	< -0.25
LMYSEIWRNS	< -0.25
DSTVRVKQSQEYVTD	< -0.25
VRGEAVCV	-0.245
TRDVIYS	< -0.25
AGTQPRMPSPAEMDCIWPGF	< -0.25
FREKYDPLRAYGKPMVLLCN	< -0.25
PTECSWTALRHNYPCQKLFR	< -0.25
NWNYIERGAKS	< -0.25
PRGLCGLHFDGQH	-0.183
GQLK	< -0.25
TTSPHPKVHE	< -0.25
DGTE	< -0.25

The results go on:

Substance | growth estimate
VRSFGRRLNWHGKDRLWIMQ | < -0.25
TLGVMTGYDSVLCDSVT | < -0.25
RGVLKTFITDVKCATLRLPG | < -0.25
EVIIGYDRSTRETLA | < -0.25
TYR | < -0.25
QSRYGMESKW | < -0.25
YCRNTALRSQ | < -0.25
RYKLSRYIVATRG | < -0.25
SSPTMGCAVMGVLRPARNQS | < -0.25
GTHMTLLPRVGDHIRTVSSG | < -0.25
PTVLSSSALCAISTNVWFEF | < -0.25
LNYS | < -0.25
ETKYGR | < -0.25
LWVGLLVVLGEANDLSA | < -0.25
GKVLRRHR | < -0.25
GQTTALVAYSRPCSDSGFVD | < -0.25
VSKERHGQQTDMRTPSG | -0.18
KSEVVGGFLSIYGYDVYRDR | < -0.25
PVRGLSY | < -0.25
CISDDHVFHCVTSRGYVRGP | < -0.25
IGRANLVVTLFFRMRYGCSF | < -0.25
SPSESRL | < -0.25
LLPSLAAQLEGASARSGRNA | < -0.25
PVSGERECTCYRLSGASAPS | < -0.25

Substance | growth estimate
RLV | < -0.25
VEVWIPNLDEDNQEINLIVP | < -0.25
VGGRACTWSIIPA | < -0.25
GYRQLSVMRCSGRRGSCRTV | < -0.25
SLHNELVADAAPPGLTSGQP | < -0.25
LGCSASHFHN | < -0.25
LRRPRGYRRGSAYSRKFGPV | < -0.25
IYTYDELNVQWGVCCLMPVK | < -0.25
VVNGPVNTPQLTTAHPCFRQ | < -0.25
FVVDRGQ | < -0.25
PSNG | < -0.25
LEITFRVAPRCHVQT | < -0.25
SPASENRISFLMIDRESPRQ | < -0.25
TCGRAEASVFTAALTCLRSS | < -0.25
AVVRYPVFVCVRTVPPPKVV | < -0.25
LNRPGC | < -0.25
YSYL | < -0.25
NGSRYNRSSIFWLQASVLWP | < -0.25
APQFFIHLQWWPVYLWFGNL | < -0.25
AHARDAVYRQVPPASLPRSV | < -0.25
RWKMRGEDKASGCGQVACRV | < -0.25
HRVNGRSGGIWPGGHCIPGK | < -0.25
LTSQGRSARDCPLQSFSTRF | < -0.25
DTFLASQGSGEQQRYRSRLG | < -0.25

Substance | growth estimate
RIAHGQAASCRGQA | < -0.25
PQAPGRN | -0.206
KIGQ | < -0.25
LLVFCTRLERVPHWIPI | < -0.25
VMIGGARRMGL | < -0.25
CKSSRRWREQRV | < -0.25
VCDSLDSLDVLCKLIECNTY | -0.246
VAINLVWPDVSVNGQMFYEA | -0.173
FVVQLSLDDA | < -0.25
GSVHEWRSELGGIAQDNIVF | < -0.25
HVRASPGSYGV | < -0.25
VCNMALNGGATN | < -0.25
VRM | < -0.25
EWTDYYMLPRW | < -0.25
WNPDHSGSTVKYTLSPQIRS | < -0.25
LSRGFVISSVGHFGTSTDIN | < -0.25
GGHIVPKR | < -0.25
LLGVSR | -0.246
CASSYARN | < -0.25
PEGVYDSTPR | < -0.25
GRCDR | < -0.25
DFTFASAPVDYWYTRSVTRT | < -0.25
RVVG | < -0.25
SGVAALIRVGDEHARSAAAG | < -0.25
